Data on 8 molecules can be found in publication PMC5800298.

No constants are given. Whether binding was seen depends on the method and setting. For some of these results: Binding seen in cells or lysates may run through a third protein. For some of these results: Sequences can lack the tags named with a protein.

In experiment [1] the target is T1, PmDAM5-YFP^N / PmDAM5-YFP^C (Prunus mume) (UniProt G1UE18).
T1 sequence: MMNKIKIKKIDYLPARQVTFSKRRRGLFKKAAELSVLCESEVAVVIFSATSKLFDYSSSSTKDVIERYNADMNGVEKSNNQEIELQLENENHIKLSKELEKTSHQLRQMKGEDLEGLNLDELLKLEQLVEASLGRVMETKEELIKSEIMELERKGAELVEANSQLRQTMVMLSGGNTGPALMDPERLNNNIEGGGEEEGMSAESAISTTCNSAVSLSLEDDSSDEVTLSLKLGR
As to the kind of experiment: split reporter; BiFC with YFP^N and YFP^C fusions co-expressed in N. benthamiana leaves by agroinfiltration; confocal microscopy 2 days after infiltration, YFP excited at 514 nm.

In experiment [2] the target is T2, PmDAM6-YFP^N / PmDAM6-YFP^C (Prunus mume) (UniProt B9A1S9).
T2 sequence: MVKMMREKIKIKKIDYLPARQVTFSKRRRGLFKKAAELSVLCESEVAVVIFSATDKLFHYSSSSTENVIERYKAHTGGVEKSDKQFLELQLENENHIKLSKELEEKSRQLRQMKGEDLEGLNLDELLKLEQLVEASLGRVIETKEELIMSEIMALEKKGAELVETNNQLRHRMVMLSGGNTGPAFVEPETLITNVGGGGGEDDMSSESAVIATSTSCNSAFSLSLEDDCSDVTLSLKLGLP
The experiment is described as above.

In another experiment the target is T3, PmDAM5 (Prunus mume) (UniProt G1UE18).
T3 sequence: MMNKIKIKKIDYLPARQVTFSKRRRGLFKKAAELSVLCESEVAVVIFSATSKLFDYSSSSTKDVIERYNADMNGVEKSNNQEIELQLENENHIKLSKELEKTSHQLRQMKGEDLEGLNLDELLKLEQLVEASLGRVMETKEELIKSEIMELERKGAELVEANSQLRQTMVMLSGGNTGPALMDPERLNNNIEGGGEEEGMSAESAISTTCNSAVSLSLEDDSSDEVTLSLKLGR
The experiment can be described thus: two-hybrid; yeast two-hybrid; full-length PmDAMs in pGBKT7 (bait) and pGADT7 (prey); each interaction screened in triplicate; baits without auto-activation or toxicity.

Another experiment addresses T4, PmDAM6 (Prunus mume) (UniProt B9A1S9).
T4 sequence: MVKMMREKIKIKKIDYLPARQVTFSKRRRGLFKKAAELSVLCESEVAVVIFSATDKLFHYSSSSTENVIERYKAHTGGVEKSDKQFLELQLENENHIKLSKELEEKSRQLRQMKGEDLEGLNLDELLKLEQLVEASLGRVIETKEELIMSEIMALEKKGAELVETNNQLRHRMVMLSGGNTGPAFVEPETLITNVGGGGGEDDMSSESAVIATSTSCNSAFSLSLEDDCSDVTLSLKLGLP
Described as above.

The target in experiment [3] is PmDAM4-YFP^N / PmDAM4-YFP^C (Prunus mume). As to the kind of experiment: split reporter; BiFC with YFP^N and YFP^C fusions co-expressed in N. benthamiana leaves by agroinfiltration; confocal microscopy 2 days after infiltration, YFP excited at 514 nm.
The next experiment addresses PmDAM4 (Prunus mume). The experiment can be described thus: two-hybrid; yeast two-hybrid; full-length PmDAMs in pGBKT7 (bait) and pGADT7 (prey); each interaction screened in triplicate; baits without auto-activation or toxicity.

On to “PmDAM4-YFP^N / PmDAM4-YFP^C (Prunus mume)”, for which the binding result in experiment [1] and in experiment [2] was “no binding” throughout.

In the case of PmDAM4 (Prunus mume), the binding result with PmDAM5 (Prunus mume) and in the experiment with PmDAM6 (Prunus mume) was “no binding” in each case.

B1: PmDAM2-YFP^N / PmDAM2-YFP^C (protein, UniProt G1UE20 1-240)
chain: MVKTMRKKIKIKKIDYLPARQVTFSKRRRGIFKKAEELSVLCESEVAVVIFSATGKLFDYSSSSTKNVVERYKAHTNGVEKSDEPSVELQLEIENQIRLNKELAEKSRQLRQMRGEDLEKLNIDELQKLEQLVDASLGRVIETKEELIMSEIMALERKGAELVEANNQLRQRMVMLSRGNIGPGLTEPERFINNIGDGGEEGMSSESATNATISSCSSGLSLSLEDDCSDVTLALKLGLP
As for B1, the binding entry in experiment [3] is recorded as “no binding”.

B2: PmDAM2 (protein, UniProt G1UE20 1-240)
chain: MVKTMRKKIKIKKIDYLPARQVTFSKRRRGIFKKAEELSVLCESEVAVVIFSATGKLFDYSSSSTKNVVERYKAHTNGVEKSDEPSVELQLEIENQIRLNKELAEKSRQLRQMRGEDLEKLNIDELQKLEQLVDASLGRVIETKEELIMSEIMALERKGAELVEANNQLRQRMVMLSRGNIGPGLTEPERFINNIGDGGEEGMSSESATNATISSCSSGLSLSLEDDCSDVTLALKLGLP
Turning to B2, in the experiment with PmDAM4 (Prunus mume), the binding result is listed as “no binding”.

B3: PmDAM1-YFP^N / PmDAM1-YFP^C (protein, UniProt G1UE19 1-235)
chain: MKMMREKIKIKKIDNLPARQVTFSKRRRGIFKKAAELSVLCESEVAVVIFSATGKLFDYSSSSMKDVIERYQVHINGGEKFNERSIELQPEYENHIRLSKELKEKSRQLRQMKGEDLEELNFDELQKLEQLVDASLGRVIETKDERIMSEIMALERKRAELVKANKQLRQRMLFRGNIGPELMKPERLNNNFGGGGEEEGMSSESATSTTCNSAPSLSLEDDSDDVTLSLKLGLP
On to B3, for which the binding entry in experiment [3] is reported as “no binding”.

B4: PmDAM1 (protein, UniProt G1UE19 1-235)
chain: MKMMREKIKIKKIDNLPARQVTFSKRRRGIFKKAAELSVLCESEVAVVIFSATGKLFDYSSSSMKDVIERYQVHINGGEKFNERSIELQPEYENHIRLSKELKEKSRQLRQMKGEDLEELNFDELQKLEQLVDASLGRVIETKDERIMSEIMALERKRAELVKANKQLRQRMLFRGNIGPELMKPERLNNNFGGGGEEEGMSSESATSTTCNSAPSLSLEDDSDDVTLSLKLGLP
For the molecule B4, the binding result with PmDAM4 (Prunus mume) is on record as “no binding”.

B5: PmDAM3 (protein, UniProt G1UE21 1-235)
chain: MMRKKIKIKKIDCLPARQVTFSKRRRGIFKKAAELSVLCESKVAVVIFSATGKLFDYSSSSIKDVIESYKAHKNGVKKSDEPSVELQLENENHIGLSKELEEKSHQLRQQMKAEDLEELNFDELQKLEQLVDTSLSRVIETKEELRMSEIMALERKGAELVEANNQLKQTVMLSGGNTGPTLMDPERLNDNVGGGGEEEGMSSESAISTTCNSALSLSLGDDSDDVTLSLELGLP
Turning to B5, in the experiment with PmDAM4 (Prunus mume), the binding entry is “no binding”.

B6: PmDAM3-YFP^N / PmDAM3-YFP^C (protein, UniProt G1UE21 1-235)
chain: MMRKKIKIKKIDCLPARQVTFSKRRRGIFKKAAELSVLCESKVAVVIFSATGKLFDYSSSSIKDVIESYKAHKNGVKKSDEPSVELQLENENHIGLSKELEEKSHQLRQQMKAEDLEELNFDELQKLEQLVDTSLSRVIETKEELRMSEIMALERKGAELVEANNQLKQTVMLSGGNTGPTLMDPERLNDNVGGGGEEEGMSSESAISTTCNSALSLSLGDDSDDVTLSLELGLP
Turning to B6, in experiment [3], the binding result is “no binding”.
